According to PubChem BioAssay AID1508600 (Functional Genomics Laboratory (NCATS/FGL), 2020):
Hit rate of the full screen: of about 53,000 sequences, about 3,700 (7%) were called active.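 The calls were made as follows: active = gene knockdowns whose robust z-score for IL-1 alpha signal is at least 2 or at most -2, so actives lie on both sides; inactive = the rest.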 This is one part of the list.

Test: Components of the Cytosolic LPS Sensing Pathway: Gene Identification via Genome-wide siRNA Screen;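 also: robust z of the log signal after scaling to non-targeting control siRNA wells of the plate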
Details: RAW264.7 macrophages, IL-1a HTRF, actives lie on both sides, screened at 100 nM (by protocol), cells primed 5 h with Pam3CSK4 first
How it was run: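 Knockdown: 100 nM siRNA, 48h, RAW264.7. Stimulation: Pam3CSK4 5 h, then LipidA via TransIT-TKO 24 h. Output: supernatant IL-1a HTRF, negative-control-normalized, log robust z-score; viability by CellTiter-Glo.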

Row | Sequence | z-score
1 | GGCAGUCAAGGCUAUGGACTT against Taf15 | inactive: -0.111
2 | GGACGACUGAGUCUUUGAATT against Il20 | inactive: 0.527
3 | GGCUCUGUGAUGGUCUUACTT against Olfr446 | inactive: -1.1
4 | GGAAAACCAGCACAAUUUATT against Cadm1 | active: 2.49
5 | GCAGUACCCUUACAAUAAUTT against Ndufb8 | inactive: 0.931
6 | GCUAUUCUGUCUACGUGUATT against H2bc18 | inactive: -0.356
7 | GGAUCUUCUGGAUAGAAUGTT against Prc1 | inactive: 1.16
8 | GCCCGAAAAAAACGUAGGATT against Map3k14 | inactive: 0.58
9 | GGGUUUCUAUAUAUUUAGGTT against Cdca7 | inactive: 0.21
10 | GGAAGACUUCACUAAGAUCTT against Dpysl5 | inactive: 0.793
11 | GGUGGCAGUCACCAUUCUUTT against Il17rd | inactive: -0.364
12 | GGAAAGCUUGAAAAUGUUCTT against 4932438A13Rik | inactive: -0.575
13 | GGAAACAGUGAAAUGAGUATT against Tmem127 | inactive: -0.523
14 | GGGACAGUGUCCCUUCCUUTT against Cox15 | inactive: -0.23
15 | GCCUUUUCCCGUCUGGAGATT against Glis1 | inactive: 0.122
16 | GCACGCUAAGUAACGAAAGTT against Ero1b | inactive: 0.933
17 | GGGUUCUAGUCUUCGAGACTT against Kdm3b | inactive: 0.695
18 | GGCGAGGGUUAAAAAUUUATT against Srsf1 | inactive: 0.388
19 | ACUAUCAUGAGUAGGCCCATT against Olfr32 | inactive: 0.41
20 | GCAGCGAGGUUAUCAGUAATT against Sox8 | inactive: -0.554
21 | CCUAGAGAGACAUAUUGUUTT against Vstm4 | inactive: -0.206
22 | GUGCUUGUGGAGGGUUUCUTT against Ctsg | inactive: -0.527

Row | Sequence | z-score
23 | CCAAAGACCUAUGUAAGCUTT against Akap1 | inactive: -0.283
24 | GGUUUUAUCUGCUCUUCCATT against Cpb2 | inactive: -0.423
25 | GCGAGAAUCUUUUUGAGCUTT against Rpgrip1 | inactive: 0.612
26 | CCAUUCUCCCGAGAAACUATT against Cela2a | inactive: -0.0545
27 | CCAUCUCAUCCCGAGUUAUTT against Xkr6 | inactive: 1.16
28 | GGACGGCAGAAGUACAAACTT against Esrra | inactive: -0.234
29 | GCUCAACGGUUUACCCUCATT against Ppp5c | inactive: -0.48
30 | CCCAACAAAUUGAAACAUATT against Tbc1d31 | inactive: -0.821
31 | GCCAUACUUCCCUACAAAATT against Kctd19 | inactive: 0.233
32 | GGACCAAGGAAUAUUUCCCTT against Serpinb9b | inactive: -0.564
33 | CCCAUAGCUAAUGAACCAATT against Sntg2 | inactive: -0.604
34 | GGGUAACACCUCAAGUUCATT against Rhag | active: 2.33
35 | GGUCAUUGGUAGGUCCACUTT against Rusc2 | inactive: 0.338
36 | GGCACAAAAGAAGAAGAUGTT against Retsat | inactive: -1.7
37 | CGGCUUGGACAGAUUUAUCTT against Rer1 | inactive: 0.0516
38 | GCGGAACCUCAAGUUCAGATT against Taf3 | inactive: 0.239
39 | GCCCUUCUUAAAAUCCUGGTT against Itih3 | inactive: -1.27
40 | GGAAGUGAAAACAAGCAAUTT against Hadhb | inactive: 0.0937
41 | GGAAGAAAUGCAUAAUGCATT against Mesd | inactive: 0.236
42 | GCCCUGGAGUUUAUGAGGUTT against Vwa5b2 | inactive: 0.309
43 | GGUCUCGAAUGUAUGGUGCTT against Bicc1 | inactive: 1.14
44 | GGGAAAUCCUUUCAAGGAGTT against Creb1 | inactive: -0.722

Retrieved one by one from the entries so far:
Row | Sequence | z-score
24 | GGUUUUAUCUGCUCUUCCATT against Cpb2 | inactive: -0.423
19 | ACUAUCAUGAGUAGGCCCATT against Olfr32 | inactive: 0.41
7 | GGAUCUUCUGGAUAGAAUGTT against Prc1 | inactive: 1.16
14 | GGGACAGUGUCCCUUCCUUTT against Cox15 | inactive: -0.23

(further entries)

Row | Sequence | z-score
45 | GGUGAAGGUGUCGUACUUUTT against Padi1 | inactive: -1.64
46 | CCUGCUGGGAUUUAUUCAATT against Pmvk | active: 2.52
47 | GGAUUCCAAACCAGAAAACTT against Ccdc181 | inactive: 0.707
48 | GGAAGAGGAGAAGAAAAAGTT against Syf2 | inactive: -1.25
49 | CCGAGAAAGUAUGCGCAACTT against Mlf1 | inactive: 0.131
50 | CCUCAAGCCCAAGUAAGACTT against Reep6 | inactive: -0.16
51 | GCUAUUGGGUAAUUUGCUUTT against Slco4a1 | inactive: 0.436
52 | GGCUGUCAGUGUUUACAGGTT against Srd5a1 | inactive: -0.247
53 | GCUUAUGGAGUCCCUUGAUTT against Mipep | inactive: -1.01
54 | GGUUACUCUAAAGUCAAGUTT against Nsun7 | inactive: 0.0659
55 | GGAGAUUACGAGAUGUCAATT against Sde2 | inactive: -0.0213
56 | GGAAUGUUGCCAUAGUGGATT against Mcrip2 | inactive: 1.28
57 | CGACUUGCUAGGUCAGUGGTT against Echdc3 | inactive: 0.727
58 | GGGAAGAAGCUAAAGAAGATT against Wipf1 | inactive: 1.44
59 | CGGAAAACAUUGGACUCCCTT against Cdrt4 | inactive: -1.07
60 | CCAUUGACACCUUAAAUAUTT against Cnot3 | inactive: 0.131
61 | GGCGUAAAAUUCAAACUCATT against Cr2 | inactive: 1.02
62 | GGACAGUCUACAUCUUUGUTT against Syne4 | inactive: -1.48
63 | GGACAUCCUCUUACAGUGGTT against Zg16 | inactive: 0.333
64 | GGUACUGUUUAUCAUUCAUTT against Hkdc1 | inactive: 1.05
65 | GGCUGUAUUUUGUAUUGUCTT against Coa8 | inactive: 1.21
66 | GGCGUGACUUGGAAACAUGTT against Itga8 | inactive: -1.19

Row | Sequence | z-score
67 | GGUGGACUCCUUGACAGAUTT against Krt72 | inactive: 0.705
68 | GGAGUAUUUUUUCACAGUUTT against Olfr338 | inactive: -0.999
69 | CCAUUUACCAUAAGUUCUUTT against Ccnq | inactive: -0.373
70 | GCCGGAGCACAACAAUUCUTT against Kcnn2 | inactive: 0.648
71 | CCUACUACGAGAGGAAAACTT against Ak5 | inactive: -0.202
72 | GGCUGGAUUGUAGAAUUAATT against Vpreb1 | inactive: 0.183
73 | GGAAAAGAUGAAAAGUGACTT against Myh11 | inactive: -1.32
74 | GGAAGACUCACGGCUCAAATT against Ccdc124 | inactive: -1.48
75 | GGGCUUCAGAAGAGAAAAUTT against Plbd1 | inactive: 0.458
76 | CCAAGUUUUUAUGCAGAUATT against Pip5k1b | inactive: 1.6
77 | GGACAUUGAGUCAAAAAUCTT against Slc19a2 | inactive: -0.966
78 | GGGAGAUAACAUAAGUCAUTT against Trim56 | inactive: 1.09
79 | CCCAGUACAGCCUUGUGGUTT against Med25 | active: -2.02
80 | CCUAAAUACGAUUGGUGUGTT against Cdca4 | inactive: 1.06
81 | CCGUAUCCGGCAUUGGAUUTT against Mrps16 | inactive: 0.558
82 | GCAGAAUCACCUAAUUGUGTT against Adora2b | inactive: -0.0978
83 | GGUGAAAGGAGCAAAUGAUTT against Fyco1 | inactive: -0.332
84 | GGAACAUCAUUACAGCCAATT against Unc80 | inactive: -0.113
85 | GGACGGUGACCUGUAUGAUTT against Cpxm1 | active: -2.4
86 | GGAUUUUGCACUAUAACAATT against Zmat3 | active: 3.83
87 | GAAUGUGCAGAUAGCUGGCTT against Sdsl | inactive: -0.54
88 | GGAAUCUCAAUGAAAGAUGTT against Nwd2 | inactive: -0.379

Row | Sequence | z-score
89 | GGUAGUUCUAUAGAUACUGTT against Rftn1 | inactive: 0.0743
90 | GGGACACUACAUGAAGGCCTT against Tnfrsf25 | inactive: -0.472
91 | CCUCAUGUUAAUCUGGAGATT against Gabre | inactive: 0.0167
92 | GCAAACAAUGCAACAAGCATT against Adam1b | inactive: 0.689
93 | GGAAGAUCUGAAGUCAAUCTT against Mvk | inactive: -1.08
94 | AACCAUUCAGGAGAAAGCCTT against Lce1a1 | active: -3.05
95 | GGGUAUUCUUUCAAUCAUATT against Fgf12 | inactive: -1.82
96 | GGGCAAAACCAUCUUCCGGTT against Scn5a | inactive: 0.344
97 | GGUCAAAGUCUAGGAGUUUTT against Spp1 | active: 2.56
98 | GCUGAAUCACUACCAGUCATT against Zfp462 | inactive: 1.27
99 | GGGCGGAAAACUAGACCUATT against Btbd17 | inactive: 0.494
100 | GGCUUCUAUUGCCAUAAUGTT against Olfr380 | inactive: 0.568
101 | GCUUCAAGAGACAAAACUCTT against Wsb1 | inactive: -0.0615
102 | CCAGUGCGUUUGAGAUUGATT against Aanat | inactive: 0.575
103 | GGUGCACAAUUGACAACCGTT against Ntm | inactive: -0.258
104 | GGACAAGAAGAUAUUACUUTT against Ocln | inactive: 1.13
105 | GCUUGUCAAGUUUGUGAGCTT against Sec14l4 | inactive: -0.0652
106 | GGCCCGGAAACCUUUGCAUTT against Efna4 | inactive: 0.213
107 | GGAGAGAGAUUUUCAAUAUTT against Gtdc1 | inactive: -0.41
108 | GCUUCCUAAAGCGACUAAUTT against Dnah14 | inactive: -0.0321
